Data reported in the supplement of paper PMC10849652.
Some of the results follow.

Amino acid sequences for entries named in this document (tags omitted). A change or cut given only in a name is not applied to a line headed by its entry.
UniProt O95297: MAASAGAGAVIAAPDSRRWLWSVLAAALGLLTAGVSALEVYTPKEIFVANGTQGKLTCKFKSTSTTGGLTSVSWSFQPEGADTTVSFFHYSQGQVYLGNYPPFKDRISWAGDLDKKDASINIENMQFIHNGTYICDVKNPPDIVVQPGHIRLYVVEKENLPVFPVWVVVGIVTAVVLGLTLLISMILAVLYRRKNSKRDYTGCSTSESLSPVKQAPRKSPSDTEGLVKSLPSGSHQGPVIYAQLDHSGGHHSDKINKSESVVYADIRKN
UniProt Q86YT6, whole entry, looked up: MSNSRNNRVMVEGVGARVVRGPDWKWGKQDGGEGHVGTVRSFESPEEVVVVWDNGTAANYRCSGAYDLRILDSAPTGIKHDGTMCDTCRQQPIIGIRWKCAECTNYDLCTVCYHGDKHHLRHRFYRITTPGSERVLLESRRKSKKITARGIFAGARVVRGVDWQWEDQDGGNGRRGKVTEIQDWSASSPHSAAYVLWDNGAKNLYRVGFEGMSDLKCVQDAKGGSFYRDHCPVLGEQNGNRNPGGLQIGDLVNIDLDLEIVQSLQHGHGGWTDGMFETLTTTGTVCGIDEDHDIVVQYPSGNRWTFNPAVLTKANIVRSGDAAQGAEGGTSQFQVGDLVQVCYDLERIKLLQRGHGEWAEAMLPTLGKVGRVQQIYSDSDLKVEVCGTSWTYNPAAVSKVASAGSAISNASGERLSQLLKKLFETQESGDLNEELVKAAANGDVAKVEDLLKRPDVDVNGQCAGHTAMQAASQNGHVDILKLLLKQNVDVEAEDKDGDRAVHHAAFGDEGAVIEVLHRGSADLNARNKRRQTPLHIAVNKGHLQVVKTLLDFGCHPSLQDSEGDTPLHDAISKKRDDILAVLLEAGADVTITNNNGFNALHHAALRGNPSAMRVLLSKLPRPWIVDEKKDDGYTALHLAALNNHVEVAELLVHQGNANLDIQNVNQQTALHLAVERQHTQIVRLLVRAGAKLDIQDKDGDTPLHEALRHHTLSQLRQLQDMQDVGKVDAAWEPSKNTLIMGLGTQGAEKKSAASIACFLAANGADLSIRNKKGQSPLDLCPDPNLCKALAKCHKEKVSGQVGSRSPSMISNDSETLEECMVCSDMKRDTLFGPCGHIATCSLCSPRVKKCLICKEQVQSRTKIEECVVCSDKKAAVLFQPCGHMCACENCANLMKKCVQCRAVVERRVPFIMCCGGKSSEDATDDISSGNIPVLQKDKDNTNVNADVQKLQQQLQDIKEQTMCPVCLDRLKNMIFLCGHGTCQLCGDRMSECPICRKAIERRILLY
UniProt P08473: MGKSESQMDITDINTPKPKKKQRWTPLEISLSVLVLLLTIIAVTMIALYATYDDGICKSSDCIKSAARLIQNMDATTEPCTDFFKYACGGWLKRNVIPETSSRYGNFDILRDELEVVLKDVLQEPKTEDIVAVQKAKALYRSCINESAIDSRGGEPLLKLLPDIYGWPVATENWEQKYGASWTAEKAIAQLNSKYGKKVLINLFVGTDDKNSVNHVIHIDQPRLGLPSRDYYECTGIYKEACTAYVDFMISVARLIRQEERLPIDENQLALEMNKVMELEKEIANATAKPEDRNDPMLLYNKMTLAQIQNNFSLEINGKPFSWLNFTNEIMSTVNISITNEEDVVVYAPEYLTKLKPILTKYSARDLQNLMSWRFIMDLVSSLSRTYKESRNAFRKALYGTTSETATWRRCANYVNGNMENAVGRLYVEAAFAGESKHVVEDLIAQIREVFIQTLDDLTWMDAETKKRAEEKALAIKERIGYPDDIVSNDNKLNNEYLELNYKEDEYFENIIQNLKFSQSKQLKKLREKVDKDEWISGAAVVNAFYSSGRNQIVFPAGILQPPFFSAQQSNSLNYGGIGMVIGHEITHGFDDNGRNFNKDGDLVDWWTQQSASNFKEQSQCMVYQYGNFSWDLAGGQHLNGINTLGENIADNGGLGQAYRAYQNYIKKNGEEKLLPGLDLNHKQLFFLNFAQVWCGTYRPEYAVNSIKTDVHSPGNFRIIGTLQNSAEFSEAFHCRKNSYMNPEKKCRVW
UniProt Q7L1V2: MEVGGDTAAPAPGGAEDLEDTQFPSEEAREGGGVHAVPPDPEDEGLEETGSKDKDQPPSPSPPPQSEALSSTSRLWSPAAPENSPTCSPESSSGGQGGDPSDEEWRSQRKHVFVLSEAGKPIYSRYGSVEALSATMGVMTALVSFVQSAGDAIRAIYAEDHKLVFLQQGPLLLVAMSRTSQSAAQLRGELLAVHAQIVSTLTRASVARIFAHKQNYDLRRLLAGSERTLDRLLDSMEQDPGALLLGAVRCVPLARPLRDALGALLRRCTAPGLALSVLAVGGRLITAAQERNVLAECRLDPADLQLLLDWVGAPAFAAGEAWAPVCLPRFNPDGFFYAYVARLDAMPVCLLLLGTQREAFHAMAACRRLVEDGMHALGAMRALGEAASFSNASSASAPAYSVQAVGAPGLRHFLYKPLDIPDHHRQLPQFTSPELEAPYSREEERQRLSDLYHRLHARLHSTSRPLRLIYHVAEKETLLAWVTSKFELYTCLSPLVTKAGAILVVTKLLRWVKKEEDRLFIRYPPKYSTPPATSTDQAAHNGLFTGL
UniProt Q5JRA6: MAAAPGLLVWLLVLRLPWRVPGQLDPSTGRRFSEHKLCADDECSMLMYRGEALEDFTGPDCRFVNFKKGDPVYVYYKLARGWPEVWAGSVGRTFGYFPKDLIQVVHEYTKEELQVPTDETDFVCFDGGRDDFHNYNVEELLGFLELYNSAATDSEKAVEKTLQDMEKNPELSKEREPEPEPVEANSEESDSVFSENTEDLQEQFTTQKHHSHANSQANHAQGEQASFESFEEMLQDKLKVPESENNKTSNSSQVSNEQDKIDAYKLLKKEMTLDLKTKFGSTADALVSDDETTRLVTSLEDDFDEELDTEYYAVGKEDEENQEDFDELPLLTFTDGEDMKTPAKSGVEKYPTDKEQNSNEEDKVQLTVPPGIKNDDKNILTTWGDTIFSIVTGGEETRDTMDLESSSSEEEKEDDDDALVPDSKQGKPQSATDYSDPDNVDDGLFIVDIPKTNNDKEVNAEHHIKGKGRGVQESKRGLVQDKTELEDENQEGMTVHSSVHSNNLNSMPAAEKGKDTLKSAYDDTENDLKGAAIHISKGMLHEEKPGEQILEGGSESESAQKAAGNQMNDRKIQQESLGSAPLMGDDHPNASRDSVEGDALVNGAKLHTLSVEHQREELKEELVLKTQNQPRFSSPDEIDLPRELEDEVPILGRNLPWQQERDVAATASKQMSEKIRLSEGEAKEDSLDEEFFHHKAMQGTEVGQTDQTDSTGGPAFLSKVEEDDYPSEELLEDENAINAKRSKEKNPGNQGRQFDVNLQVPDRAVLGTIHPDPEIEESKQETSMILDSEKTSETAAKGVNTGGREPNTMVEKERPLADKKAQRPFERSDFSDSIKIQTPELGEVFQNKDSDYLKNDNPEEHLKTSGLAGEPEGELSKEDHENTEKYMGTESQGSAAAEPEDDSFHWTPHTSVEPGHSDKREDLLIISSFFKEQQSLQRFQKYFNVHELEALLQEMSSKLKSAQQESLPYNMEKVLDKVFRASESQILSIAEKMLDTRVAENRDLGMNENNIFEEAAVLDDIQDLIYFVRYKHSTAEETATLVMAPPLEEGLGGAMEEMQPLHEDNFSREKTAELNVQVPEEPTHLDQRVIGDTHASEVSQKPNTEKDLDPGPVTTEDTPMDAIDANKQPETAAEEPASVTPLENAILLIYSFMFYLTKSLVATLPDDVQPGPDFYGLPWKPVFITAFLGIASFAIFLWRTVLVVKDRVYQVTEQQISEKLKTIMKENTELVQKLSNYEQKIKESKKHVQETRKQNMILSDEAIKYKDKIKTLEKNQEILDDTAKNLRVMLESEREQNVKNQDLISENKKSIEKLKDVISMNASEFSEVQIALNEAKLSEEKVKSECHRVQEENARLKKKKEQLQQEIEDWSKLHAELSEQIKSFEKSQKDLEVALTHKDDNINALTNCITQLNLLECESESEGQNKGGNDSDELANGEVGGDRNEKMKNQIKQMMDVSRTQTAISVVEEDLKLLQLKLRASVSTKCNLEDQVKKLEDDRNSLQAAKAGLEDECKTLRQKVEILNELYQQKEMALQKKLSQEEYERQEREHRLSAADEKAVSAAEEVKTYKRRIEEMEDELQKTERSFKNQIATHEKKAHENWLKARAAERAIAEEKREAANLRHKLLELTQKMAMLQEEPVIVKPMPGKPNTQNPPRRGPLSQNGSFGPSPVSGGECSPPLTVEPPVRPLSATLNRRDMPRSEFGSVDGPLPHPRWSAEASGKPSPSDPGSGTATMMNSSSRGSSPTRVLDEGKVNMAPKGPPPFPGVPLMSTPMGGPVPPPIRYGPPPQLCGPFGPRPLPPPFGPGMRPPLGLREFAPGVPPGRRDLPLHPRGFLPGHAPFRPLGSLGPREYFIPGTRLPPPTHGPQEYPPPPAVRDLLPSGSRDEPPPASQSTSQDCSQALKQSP
UniProt Q99547: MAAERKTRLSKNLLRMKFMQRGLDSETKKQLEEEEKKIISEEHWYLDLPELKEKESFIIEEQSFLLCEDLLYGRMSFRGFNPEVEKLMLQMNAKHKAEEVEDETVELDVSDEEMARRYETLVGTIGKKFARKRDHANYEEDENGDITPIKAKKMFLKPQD
UniProt P29372, whole entry, looked up: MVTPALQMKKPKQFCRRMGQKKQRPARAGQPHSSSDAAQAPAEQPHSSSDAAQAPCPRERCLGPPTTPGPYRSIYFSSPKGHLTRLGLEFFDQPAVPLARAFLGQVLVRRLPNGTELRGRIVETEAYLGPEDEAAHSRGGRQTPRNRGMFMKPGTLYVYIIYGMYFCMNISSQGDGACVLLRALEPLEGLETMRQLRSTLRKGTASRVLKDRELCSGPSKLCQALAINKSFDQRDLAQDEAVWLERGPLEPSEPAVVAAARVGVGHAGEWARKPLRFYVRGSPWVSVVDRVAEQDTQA
UniProt P49959: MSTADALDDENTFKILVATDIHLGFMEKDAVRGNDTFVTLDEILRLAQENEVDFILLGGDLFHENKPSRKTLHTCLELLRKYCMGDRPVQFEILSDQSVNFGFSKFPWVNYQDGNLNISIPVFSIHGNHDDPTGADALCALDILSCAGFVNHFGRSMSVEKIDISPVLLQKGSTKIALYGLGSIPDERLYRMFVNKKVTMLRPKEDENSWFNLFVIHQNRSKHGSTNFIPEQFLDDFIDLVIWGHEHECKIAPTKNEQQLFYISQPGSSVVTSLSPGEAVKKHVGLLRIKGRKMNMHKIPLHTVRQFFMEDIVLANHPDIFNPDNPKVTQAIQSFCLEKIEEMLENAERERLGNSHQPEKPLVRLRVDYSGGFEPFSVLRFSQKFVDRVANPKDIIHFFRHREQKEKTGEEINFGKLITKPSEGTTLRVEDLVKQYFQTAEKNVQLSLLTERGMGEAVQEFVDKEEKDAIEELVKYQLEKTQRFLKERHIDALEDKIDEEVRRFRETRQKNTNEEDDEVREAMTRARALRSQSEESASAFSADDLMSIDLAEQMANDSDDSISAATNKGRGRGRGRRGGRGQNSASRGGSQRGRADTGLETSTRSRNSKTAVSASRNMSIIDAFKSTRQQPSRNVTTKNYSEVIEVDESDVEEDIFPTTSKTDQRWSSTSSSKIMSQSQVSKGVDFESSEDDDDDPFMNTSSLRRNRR
UniProt Q8TAP9: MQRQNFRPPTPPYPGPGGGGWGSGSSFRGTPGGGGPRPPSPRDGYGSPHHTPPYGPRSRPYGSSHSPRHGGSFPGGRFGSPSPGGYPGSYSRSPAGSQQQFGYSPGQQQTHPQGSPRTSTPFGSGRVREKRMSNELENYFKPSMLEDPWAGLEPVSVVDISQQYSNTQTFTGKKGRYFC
UniProt P22033: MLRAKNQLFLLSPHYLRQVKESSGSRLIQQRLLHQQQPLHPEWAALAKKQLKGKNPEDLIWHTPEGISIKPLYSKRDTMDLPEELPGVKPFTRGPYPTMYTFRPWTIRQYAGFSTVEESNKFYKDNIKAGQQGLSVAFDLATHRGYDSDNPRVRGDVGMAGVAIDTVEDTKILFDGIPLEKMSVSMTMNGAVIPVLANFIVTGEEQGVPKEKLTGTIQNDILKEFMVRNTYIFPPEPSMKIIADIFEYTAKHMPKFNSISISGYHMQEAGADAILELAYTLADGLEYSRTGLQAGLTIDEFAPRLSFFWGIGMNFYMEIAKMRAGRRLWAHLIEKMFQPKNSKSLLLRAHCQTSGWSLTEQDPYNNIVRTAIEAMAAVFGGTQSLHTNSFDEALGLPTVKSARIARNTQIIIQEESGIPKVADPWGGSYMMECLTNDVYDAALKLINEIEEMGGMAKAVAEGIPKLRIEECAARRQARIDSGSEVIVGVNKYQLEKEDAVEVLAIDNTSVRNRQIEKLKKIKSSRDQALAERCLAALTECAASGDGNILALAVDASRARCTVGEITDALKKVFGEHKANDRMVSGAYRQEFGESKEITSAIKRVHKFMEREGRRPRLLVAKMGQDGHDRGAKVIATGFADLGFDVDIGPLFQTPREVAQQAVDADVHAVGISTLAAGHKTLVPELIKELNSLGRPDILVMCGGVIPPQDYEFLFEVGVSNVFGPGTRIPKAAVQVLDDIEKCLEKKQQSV

Tests used:
Experiment in all cases: log2 fold change, soluble protein after heating vs DMSO (PISA); higher = thermal stabilisation; K562 lysate, 10 uM; active = over 0.2 and 3.5 SD of the protein, either way, in both replicates (recomputed)
nilotinib = compound: Cc1cn(-c2cc(NC(=O)c3ccc(C)c(Nc4nccc(-c5cccnc5)n4)c3)cc(C(F)(F)F)c2)cn1 [nilotinib]
In short: (§1)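 Log-two fold change in thermal stability relative to solvent controls is reported from duplicates. For each sample, crude K562 extract from dounce-homogenised pellets in PBS pH 7.4 with 1 mM MgCl2, at 1 mg/mL protein, was treated with 10 μM compound for 30 min. Aliquots heated for 3 min across 48°C-58°C were pooled, brought to 0.5% NP-40 at 4°C and cleared at 21,000xg for 90 min. The supernatant was quantified by TMTpro 16plex LC-MS/MS with channel sums equalised.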

[1] = compound: Cc1nc(Nc2n[nH]c3c2CN(C(=O)N[C@H](CN(C)C)c2ccccc2)C3(C)C)c2sccc2n1
In short: as §1

dasatinib = compound: Cc1nc(Nc2ncc(C(=O)Nc3c(C)cccc3Cl)s2)cc(N2CCN(CCO)CC2)n1 [dasatinib]
In short: as §1

[2] = compound: Cc1ncc(-c2ccnc(Nc3ccc(S(C)(=O)=O)cc3)n2)n1C(C)C
In short: as §1

[3] = compound: Cn1cc(-c2ccc3c(c2)CCN3C(=O)Cc2cccc(C(F)(F)F)c2)c2c(N)ncnc21
In short: as §1

quisinostat = compound: Cn1cc(CNCC2CCN(c3ncc(C(=O)NO)cn3)CC2)c2ccccc21 [quisinostat]
In short: as §1

tipifarnib = compound: Cn1cncc1[C@@](N)(c1ccc(Cl)cc1)c1ccc2c(c1)c(-c1cccc(Cl)c1)cc(=O)n2C [tipifarnib]
In short: as §1

[4] = compound: NC(=O)Nc1cc(-c2cccc(F)c2)sc1C(=O)N[C@H]1CCCNC1
In short: as §1

[5] = compound: NC(=O)c1cnc(N[C@@H]2CCCC[C@@H]2N)nc1Nc1cccc(-n2nccn2)c1
In short: as §1

[6] = compound: NC1(c2ccc(-c3nc4ccn5c(=O)[nH]nc5c4cc3-c3ccccc3)cc2)CCC1
In short: as §1

| Target | log2 fold change (nilotinib) | log2 fold change [1] | log2 fold change (dasatinib) | log2 fold change [2] | log2 fold change [3] | log2 fold change (quisinostat) | log2 fold change (tipifarnib) | log2 fold change [4] | log2 fold change [5] | log2 fold change [6] |
| --- | --- | --- | --- | --- | --- | --- | --- | --- | --- | --- |
| MRI1 (UniProt Q9BV20) | inactive: 0.011 | inactive: -0.017 | inactive: 0.001 | inactive: 0.022 | inactive: 0.009 | inactive: -0.013 | inactive: -0.002 | inactive: 0.012 | inactive: 0.021 | inactive: 0.009 |
| MPP6 (UniProt Q9NZW5) | inactive: -0.023 | inactive: 0.022 | inactive: -0.05 | inactive: -0.008 | inactive: -0.004 | inactive: -0.032 | inactive: 0.003 | inactive: 0 | inactive: 0.019 | inactive: -0.036 |
| MRM3 (UniProt Q9HC36) | inactive: -0.058 | inactive: -0.021 | inactive: 0.003 | inactive: -0.04 | inactive: 0.011 | inactive: 0.016 | inactive: 0.054 | inactive: -0.034 | inactive: 0.029 | inactive: -0.025 |
| MPZL1 (UniProt O95297) | inactive: -0.03 | inactive: 0.032 | inactive: 0.033 | inactive: -0.014 | inactive: 0.018 | inactive: 0.071 | inactive: 0.035 | inactive: -0.02 | inactive: 0.026 | inactive: 0.028 |
| MIS12 (UniProt Q9H081) | inactive: 0.035 | inactive: 0.01 | inactive: 0.001 | inactive: -0.015 | inactive: 0.023 | inactive: -0.055 | inactive: -0.019 | inactive: 0.048 | inactive: 0.054 | inactive: 0.021 |
| MIEF1 (UniProt Q9NQG6) | inactive: 0.038 | inactive: -0.072 | inactive: 0.04 | inactive: 0.017 | inactive: -0.014 | inactive: -0.108 | inactive: -0.134 | inactive: 0.082 | inactive: 0.004 | inactive: -0.016 |
| MRPL21 (UniProt Q7Z2W9) | inactive: -0.096 | inactive: -0.002 | inactive: -0.037 | inactive: 0.095 | inactive: 0.026 | inactive: -0.035 | inactive: 0.022 | inactive: -0.015 | inactive: 0.007 | inactive: -0.014 |
| MIB1 (UniProt Q86YT6) | inactive: 0.133 | inactive: 0.128 | inactive: 0.005 | inactive: 0.012 | inactive: -0.081 | inactive: -0.008 | inactive: -0.041 | inactive: 0.017 | inactive: 0.094 | inactive: -0.069 |
| MICU1 isoform 3 (UniProt Q9BPX6) | inactive: 0.01 | inactive: -0.044 | inactive: -0.02 | inactive: -0.015 | inactive: 0.027 | inactive: 0.002 | inactive: -0.015 | inactive: -0.026 | inactive: 0.06 | inactive: -0.021 |
| MGA (UniProt Q8IWI9) | inactive: 0.043 | inactive: 0.014 | inactive: -0.193 | inactive: -0.19 | inactive: 0.007 | inactive: -0.165 | inactive: -0.046 | inactive: 0.018 | inactive: -0.083 | inactive: -0.096 |
| MME (UniProt P08473) | inactive: -0.09 | inactive: 0.082 | active: -0.513 | inactive: 0.021 | inactive: 0.104 | inactive: -0.02 | inactive: -0.031 | inactive: 0.085 | inactive: 0.061 | inactive: -0.014 |
| MLLT11 (UniProt Q13015) | inactive: 0.068 | inactive: 0.03 | inactive: -0.015 | inactive: -0.051 | inactive: -0.06 | inactive: -0.029 | inactive: -0.204 | inactive: 0.107 | inactive: 0.011 | inactive: 0.055 |
| MON1B (UniProt Q7L1V2) | inactive: -0.007 | inactive: -0.016 | inactive: -0.056 | inactive: -0.029 | inactive: 0.015 | inactive: -0.017 | inactive: 0.027 | inactive: 0.009 | inactive: -0.012 | inactive: 0.005 |
| MICB, A0A140T979 | inactive: -0.044 | inactive: 0.042 | inactive: 0.024 | inactive: 0.033 | inactive: -0.055 | inactive: -0.06 | inactive: -0.025 | inactive: -0.004 | inactive: 0.491 | inactive: 0.21 |
| MIA3 (UniProt Q5JRA6) | inactive: -0.021 | inactive: -0.011 | inactive: -0.045 | inactive: 0.02 | inactive: 0.043 | inactive: 0.017 | inactive: -0.008 | inactive: -0.012 | inactive: 0.031 | inactive: 0.019 |
| MPHOSPH6 (UniProt Q99547) | inactive: -0.064 | inactive: 0.046 | inactive: -0.004 | inactive: -0.055 | inactive: 0.068 | inactive: -0.043 | inactive: 0.016 | inactive: 0.013 | inactive: 0.006 | inactive: -0.006 |
| MORC3 (UniProt Q14149) | inactive: 0.001 | inactive: 0.012 | inactive: 0.006 | inactive: -0.015 | inactive: 0.046 | inactive: -0.018 | inactive: -0.01 | inactive: 0.037 | inactive: -0.017 | inactive: -0.004 |
| MINDY1 isoform 3 (UniProt Q8N5J2) | inactive: -0.03 | inactive: 0.154 | inactive: -0.086 | inactive: 0.271 | inactive: 0.159 | inactive: -0.006 | inactive: 0.022 | inactive: -0.072 | active: 0.548 | inactive: 0.038 |
| MRPL15 (UniProt Q9P015) | inactive: 0.011 | inactive: -0.034 | inactive: 0.004 | inactive: -0.028 | inactive: -0.008 | inactive: -0.022 | inactive: 0.012 | inactive: 0.005 | inactive: 0.012 | inactive: -0.181 |
| MPG (UniProt P29372) | inactive: -0.023 | inactive: -0.077 | inactive: -0.037 | inactive: -0.051 | inactive: -0.006 | inactive: 0 | inactive: 0.019 | inactive: 0.023 | inactive: 0.005 | inactive: -0.003 |
| MLXIP (UniProt Q9HAP2) | inactive: 0.09 | inactive: 0.003 | inactive: -0.068 | inactive: 0.003 | inactive: 0.02 | inactive: -0.04 | inactive: 0 | inactive: 0.082 | inactive: -0.01 | inactive: -0.028 |
| MRPL10 isoform 2 (UniProt Q7Z7H8) | inactive: 0.009 | inactive: 0.016 | inactive: -0.019 | inactive: 0.025 | inactive: 0.054 | inactive: -0.22 | inactive: -0.017 | inactive: 0.015 | inactive: 0.024 | inactive: -0.011 |
| MMS19 isoform 8 (UniProt Q96T76) | inactive: -0.014 | inactive: 0.019 | inactive: -0.043 | inactive: 0.018 | inactive: -0.011 | inactive: -0.056 | inactive: -0.002 | inactive: 0.053 | inactive: 0.014 | inactive: 0.004 |
| MOB3A (UniProt Q96BX8) | inactive: -0.002 | inactive: -0.002 | inactive: 0.013 | inactive: -0.038 | inactive: 0.04 | inactive: 0.042 | inactive: 0.034 | inactive: 0.018 | inactive: 0.011 | inactive: -0.06 |
| MRE11 isoform 3 (UniProt P49959) | inactive: 0.001 | inactive: 0.032 | inactive: 0.095 | inactive: 0.008 | inactive: 0.037 | inactive: 0.013 | inactive: 0.012 | inactive: -0.01 | inactive: -0.002 | inactive: -0.002 |
| MPLKIP (UniProt Q8TAP9) | inactive: 0.034 | inactive: -0.075 | inactive: -0.068 | inactive: -0.101 | inactive: 0.003 | inactive: -0.117 | inactive: -0.046 | inactive: 0.005 | inactive: 0.004 | inactive: -0.062 |
| MKI67 (UniProt P46013) | inactive: -0.008 | inactive: 0.032 | inactive: 0.01 | inactive: -0.007 | inactive: -0.003 | inactive: -0.02 | inactive: -0.021 | inactive: 0.031 | inactive: -0.007 | inactive: 0.025 |
| MLLT1 (UniProt Q03111) | inactive: -0.003 | inactive: -0.006 | inactive: 0.031 | inactive: 0.076 | inactive: -0.01 | inactive: 0.005 | inactive: -0.054 | inactive: -0.027 | inactive: -0.01 | inactive: -0.024 |
| MKRN2 (UniProt Q9H000) | inactive: -0.053 | inactive: 0.015 | inactive: -0.039 | inactive: -0.115 | inactive: 0.008 | inactive: 0.023 | inactive: 0.014 | inactive: -0.039 | inactive: -0.005 | inactive: 0.021 |
| MMUT (UniProt P22033) | inactive: -0.003 | inactive: -0.021 | inactive: 0.002 | inactive: -0.019 | inactive: 0.021 | inactive: 0.053 | inactive: 0.046 | inactive: 0.014 | inactive: 0.039 | inactive: -0.004 |

Given with bars between the fields: part of the list above
Target | log2 fold change (nilotinib) | log2 fold change [1] | log2 fold change (dasatinib) | log2 fold change [2] | log2 fold change [3] | log2 fold change (quisinostat) | log2 fold change (tipifarnib) | log2 fold change [4] | log2 fold change [5] | log2 fold change [6]
MRPL15 (UniProt Q9P015) | inactive: 0.011 | inactive: -0.034 | inactive: 0.004 | inactive: -0.028 | inactive: -0.008 | inactive: -0.022 | inactive: 0.012 | inactive: 0.005 | inactive: 0.012 | inactive: -0.181
MPG (UniProt P29372) | inactive: -0.023 | inactive: -0.077 | inactive: -0.037 | inactive: -0.051 | inactive: -0.006 | inactive: 0 | inactive: 0.019 | inactive: 0.023 | inactive: 0.005 | inactive: -0.003
